# Primary screen of a compound library

By UniProt entry, the sequences of proteins in these tests, tags left out.
UniProt P9WPC5, whole entry: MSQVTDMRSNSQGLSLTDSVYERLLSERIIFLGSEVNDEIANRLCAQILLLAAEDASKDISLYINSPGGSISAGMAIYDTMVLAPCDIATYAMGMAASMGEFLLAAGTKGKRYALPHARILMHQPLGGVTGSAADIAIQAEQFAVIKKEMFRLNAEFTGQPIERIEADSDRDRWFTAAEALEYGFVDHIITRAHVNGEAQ
UniProt P9WPC3, whole entry partner: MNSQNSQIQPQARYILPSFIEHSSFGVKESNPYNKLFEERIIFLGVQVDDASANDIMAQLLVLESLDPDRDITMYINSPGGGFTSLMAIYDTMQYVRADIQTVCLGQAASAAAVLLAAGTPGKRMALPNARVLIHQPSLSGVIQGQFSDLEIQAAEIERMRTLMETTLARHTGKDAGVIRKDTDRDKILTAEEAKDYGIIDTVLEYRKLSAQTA
UniProt I6X8D2, whole entry: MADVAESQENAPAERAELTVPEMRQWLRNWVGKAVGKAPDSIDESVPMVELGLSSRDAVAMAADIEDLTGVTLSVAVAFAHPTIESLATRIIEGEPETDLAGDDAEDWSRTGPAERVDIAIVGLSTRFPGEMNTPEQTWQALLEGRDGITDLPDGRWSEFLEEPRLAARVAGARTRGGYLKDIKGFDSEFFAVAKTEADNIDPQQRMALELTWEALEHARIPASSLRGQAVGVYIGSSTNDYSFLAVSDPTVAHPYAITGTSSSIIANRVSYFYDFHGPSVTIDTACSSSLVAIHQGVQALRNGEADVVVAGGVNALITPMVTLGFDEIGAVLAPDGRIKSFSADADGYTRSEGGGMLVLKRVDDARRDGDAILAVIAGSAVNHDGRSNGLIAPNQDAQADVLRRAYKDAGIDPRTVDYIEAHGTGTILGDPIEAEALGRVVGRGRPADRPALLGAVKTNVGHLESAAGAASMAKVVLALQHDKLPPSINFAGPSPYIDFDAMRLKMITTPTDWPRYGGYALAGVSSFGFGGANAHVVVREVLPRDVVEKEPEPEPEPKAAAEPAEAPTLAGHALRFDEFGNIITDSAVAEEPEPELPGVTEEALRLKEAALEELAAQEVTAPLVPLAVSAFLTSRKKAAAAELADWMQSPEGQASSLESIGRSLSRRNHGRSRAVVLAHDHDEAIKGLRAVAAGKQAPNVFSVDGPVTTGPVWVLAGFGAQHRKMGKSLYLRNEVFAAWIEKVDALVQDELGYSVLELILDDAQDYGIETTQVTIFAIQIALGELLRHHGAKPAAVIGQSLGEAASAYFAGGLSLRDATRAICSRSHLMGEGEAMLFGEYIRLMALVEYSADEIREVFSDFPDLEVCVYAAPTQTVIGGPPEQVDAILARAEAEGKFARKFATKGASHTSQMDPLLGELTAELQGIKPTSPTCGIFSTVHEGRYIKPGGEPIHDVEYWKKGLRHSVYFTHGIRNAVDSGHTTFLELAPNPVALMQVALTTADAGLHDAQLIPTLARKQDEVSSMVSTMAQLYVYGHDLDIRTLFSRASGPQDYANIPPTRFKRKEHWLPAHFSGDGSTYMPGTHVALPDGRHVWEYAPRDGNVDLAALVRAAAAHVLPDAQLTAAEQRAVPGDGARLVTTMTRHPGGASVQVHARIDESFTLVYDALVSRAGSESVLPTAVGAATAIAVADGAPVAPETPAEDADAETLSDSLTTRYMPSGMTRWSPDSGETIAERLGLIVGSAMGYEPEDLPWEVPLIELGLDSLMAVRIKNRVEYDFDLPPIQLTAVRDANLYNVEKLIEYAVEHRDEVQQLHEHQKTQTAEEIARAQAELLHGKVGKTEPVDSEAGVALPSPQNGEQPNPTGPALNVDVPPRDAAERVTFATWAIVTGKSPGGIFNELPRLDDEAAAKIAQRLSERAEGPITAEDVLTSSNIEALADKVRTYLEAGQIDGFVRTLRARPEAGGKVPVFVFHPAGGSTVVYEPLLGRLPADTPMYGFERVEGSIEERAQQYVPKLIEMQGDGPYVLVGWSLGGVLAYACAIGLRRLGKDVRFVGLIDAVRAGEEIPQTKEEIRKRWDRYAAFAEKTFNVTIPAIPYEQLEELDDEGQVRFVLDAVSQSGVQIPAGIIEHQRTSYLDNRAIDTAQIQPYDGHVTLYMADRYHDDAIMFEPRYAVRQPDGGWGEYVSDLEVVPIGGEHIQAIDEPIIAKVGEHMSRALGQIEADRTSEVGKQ

Leishmania in macrophages: 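Cell assay of Leishmania donovani living inside macrophages; the read-out is not stated. Compounds at 30 µM. Direction is inferred from retests: higher values go with stronger inhibition. About 69,000 compounds were tested under these conditions; 1.5% (about 1,000) showed 50% or more at least once.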
Toxoplasma: 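Assay of Toxoplasma gondii numbers, read through their beta-galactosidase reporter with a colour substrate. Concentration: 10 µM. The record gives no direction; the compounds picked for IC50 retests had high values, so higher reads as fewer parasites. About 67,000 compounds were tested under these conditions; 0.38% (about 260) showed 50% or more at least once.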
ClpP1P2: 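Protease assay of ClpP1P2, read by the AMC dye that it sets free. Target: ClpP1P2, Mycobacterium tuberculosis (UniProt P9WPC5 and UniProt P9WPC3). Compounds at 50 µM. Higher reads as stronger inhibition, judged from the few compounds that gave an IC50. Most other retested compounds had strongly negative values. Of about 69,000 compounds tested this way, about 10 (0.015%) reached 50% or more in at least one test.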
T. brucei: 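Whole-parasite assay of Trypanosoma brucei over 72 hours; the read-out is not stated. Tested at 30 µM. Higher reads as stronger inhibition (inferred: compounds with an IC50 in retests scored well above the rest). Values scatter widely below zero; nearly all retest evidence comes from the higher of the two concentrations used. Of about 64,000 compounds tested this way, about 940 (1.5%) reached 50% or more in at least one test.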
Pks13 thioesterase: 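Enzyme assay of the thioesterase domain of polyketide synthase 13; the read-out is not stated. Target: Polyketide synthase Pks13, Mycobacterium tuberculosis (UniProt I6X8D2). Tested at 30 µM. Higher reads as stronger inhibition (inferred from which compounds were picked for retests). Size under these conditions: about 67,000 compounds, about 300 of them at 50% or above in at least one test.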

Results are given as percent effect.
How 0% and 100% were set is not recorded. Most values in the screen are low, and negative values occur.
Compounds were drawn at random from those tested, without regard to their results.
Two or more numbers in one place are separate tests of the same structure; such repeats can differ widely.
A dash means the value is not listed here; it may have been measured.

compound	Leishmania in macrophages	Toxoplasma	ClpP1P2	T. brucei	Pks13 thioesterase
CN(Cc1ccccc1)CC(C)(C)NC(=O)c1ccon1	-10.24	-4.005	-10.55	-25.98	10.4
O=C(NCC1(N2CCOCC2)CCSC1)Nc1ccncc1 (configuration not stated)	29.94	0.1264	1.129	-39.7	-22.14
CCc1cc(C(=O)N2CCC3(CCCN(CCOC)C3=O)C2)cs1 (configuration not stated)	2.62	2.31	-14.86	-77.6	-31.21
COCCN1C[C@@H]2[C@@H](OC)CCN(Cc3ccc(C)o3)[C@@H]2C1	-	-	-20.3	-	6.758
Cc1nn(CC(=O)N2CCCC2Cn2cccn2)c(C)c1Cl (configuration not stated)	2.651	1.094	-2.1	-6.774	-12.82
CCn1cc(CN2CC3CCCN3C[C@H]2C)c(C)n1 (some centres not stated)	0.08962	0.1922	11.47	-23.89	-41.19
Cc1nc(CNC(C)c2ccc(S(=O)(=O)N(C)C)cc2)no1 (configuration not stated)	27.23	2.717	-1.45	-30.7	-15.54
Cc1ccc(CN2CCCn3c(nc(Cn4ccnc4)cc3=O)C2)s1	34.34	4.658	1.626	5.16	1.792
CC(C)N(C)CCCNC(=O)c1cnc(-c2ccccc2)nc1	-1.616	5.263	-0.008593	34.41	-7.153
CNC[C@H]1CC[C@H](c2cc(CN(C)S(=O)(=O)N(C)C)n(C)n2)CC1	-	-	-15.4	-	-13.89
Cc1cnn(-c2ccc(S(=O)(=O)N(C)CC(F)F)cc2F)c1	-34.79	-7.036	-1.823	-202.6	7.18
CC(SCCNS(=O)(=O)c1cnn(C)c1)c1cccc(F)c1 (configuration not stated)	-80.62	-0.8348	-4.72	-21.11	-6.856
Cc1ccccc1N1CCN(C(=O)CCc2nncn2C)C(C)C1 (configuration not stated)	9.651	-21.16	-24.34	-44.49	-0.02457
Cc1ccc(S(=O)(=O)NCC(C)(C)N)c(F)c1.Cl	-8.546	-13.99	-	-16.31	-
CCCc1nnc2sc(CC3CN(Cc4ccccc4)CCO3)nn12 (configuration not stated)	48.37	6.791	-9.223	-5.41	-4.792
CS(=O)(=O)NCc1noc2c1CN(C(=O)C1CCC1)CC2	11.5	-21.82	11.76	-7.508	-7.237
O=C(c1ccc(=O)[nH]c1)N1CCCC1c1nc2cc(F)ccc2[nH]1 (configuration not stated)	9.517	-14	-30.86	-10.98	6.797
COc1ccc(CN2CCc3nc(C4CCCCN4C)ncc3C2)cc1 (configuration not stated)	14.05	-3.272	10.07	-5.648	-36.68
Cc1csc(C(Cc2cccs2)NCc2cc3c(cc2C)OCO3)n1 (configuration not stated)	-7.355	4.112	-8.458	-26.26	-15.44
CC1CCCCN1C(=O)CN1CCN(c2ccc3nncn3n2)CC1 (configuration not stated)	1.894	-5.789	13.54	-19.05	12.06
Cn1cc(CN2CCCC23CCN(C(=O)c2cccs2)CC3)cn1.O=C(O)C(F)(F)F	25.05	2.081	-	18.06	-
Cc1cnc(C(=O)NCC(c2ccc(C)o2)N2CCOCC2)cn1 (configuration not stated)	7.183	-1.264	5.7	-106.3	28.04
Cc1n[nH]c(C)c1C1COCCN1C(=O)c1ccc(Cl)o1 (configuration not stated)	6.645	-12.28	8.468	-3.222	-30.66
CCOCC(=O)N1CCCC2(CCN(c3ccccc3)C2=O)C1 (configuration not stated)	-0.6713	-11.72	-1.965	-17.12	-16.51
Cn1cccc1C(=O)N1CC[C@@H]2[C@@H]1CC(=O)N2CC1CCOCC1	-	-	-1.338	-	-42.76
CC(C)OCCN1CCN(C(=O)c2cc(-n3cccn3)ccn2)CC1	17.43	2.671	-5.112	-30.62	-40.64
O=C(Cc1ccc2c(c1)OCCO2)NC1CCN(CC(F)F)CC1	-12.88	1.694	-6.372	7.315	-5.183
Cn1nnc(NCc2ccccc2OCc2ccc(Cl)cc2)n1	12.58	1.367	-6.522	35.44	27.49
Cc1cc(C2CCCN(Cc3cccnc3)C2)n[nH]1 (configuration not stated)	20.41	-36.52	3.175	-121.5	-
COc1cc(NCc2ncc[nH]2)ccc1Br	-12.4	-4.588	-2.578	-18.85	-
COCCN1CCC2(COCc3cnc(N(C)C)nc32)C1 (configuration not stated)	-	-	1.982	-	-10.07
O=C(NCc1cnc2n1CCN(Cc1nccs1)CC2)C1CCC1.O=C(O)C(F)(F)F	-12.65	4.085	-	-21.25	-
O=C(O)c1ccc2[nH]cc(CN3CCOCC3)c2c1	30.83	-6.799	-10.28	-16.92	-5.069
c1cc(C2CN(C3CCCCC3)C2)n[nH]1	20.38	7.786	-0.6126	-12.52	13.86
Cc1cccc(NC2CCN(C(=O)Nc3ccc(F)cc3C)CC2)n1	32.02	-53.1	-12.64	-6.718	3.569
CCN1CCC(N2CCC(C(=O)N(C)C)CC2)CC1.O=C(O)C(F)(F)F.O=C(O)C(F)(F)F	36.09	-16.35	-	2.464	-
COc1cccc(CN2CCCCC2CN2CCOCC2)c1F (configuration not stated)	1.879	-4.83	-1.519	-29.38	-30.29
CS(=O)(=O)c1ccc(CNc2nccc(C(F)(F)F)n2)cc1	25.37	15.98	-19.29	-6.613	8.686
O=C(NCc1ccoc1)Nc1cc(C(F)(F)F)c[nH]c1=O	24.5	-3.784	-41.3	-	-15.31
O=C(O)C(F)(F)F.O=C(O)C(F)(F)F.[H][C@@]12CCCO[C@]1([H])[C@H](N1CCCC1)CN(Cc1ccco1)C2	4.782	1.724	-	24.9	-
CC(C)(C)S(=O)(=O)CCNC(=O)NCCCc1cccc(F)c1	-19.51	-9.457	-8.521	-14.25	-15.98
Cc1cc(C2CCCN2Cc2ccc(S(=O)(=O)N(C)C)o2)on1 (configuration not stated)	12.62	-6.102	-37.1	-15.95	-5.335
COc1cccc(NC(=O)Nc2ccc3c(c2)CC(=O)N3)c1	-17.41 and -9.52	14.2	-8.967	-38.12	-26.19
COc1ccc(OC)c(NC(=O)c2cc3c([nH]c2=O)CCCC3=O)c1	36.78	0.38	-9.895	-33.54	-3.799
CCCN(CC)Cn1ncc2cn(-c3ccccc3)nc2c1=O	22.87	6.554	6.31	5.062	-28.23
c1ccc(O[C@@H]2CN(Cc3nccs3)[C@@H]3CCCO[C@@H]32)nc1	-	-	2.696	-	-21.31
C[C@@H]1CN(Cc2ccccn2)C[C@]12CCN(Cc1cccnc1)C2=O	-	-	3.099	-	-11.38
COc1ccc(C2(CNC(C)c3nnc(C)o3)CCCCC2)cc1 (configuration not stated)	36.38	0.6924	-13.39	100.1	-5.507
O=C(O)C(F)(F)F.O=C(O)C(F)(F)F.[H][C@@]12CCCO[C@]1([H])[C@H](N(C)C(C)C)CN(Cc1scnc1C)C2	1.219 and 0.2116	4.346	-	-36.47	-
COc1ccc(CC(C)(O)CNC(=O)Cc2cccs2)cc1 (configuration not stated)	25.99	-4.507	6.491	-48.58	9.277
O=C(O)C(F)(F)F.[H][C@@]12CCN(Cc3cccs3)C[C@@]1([H])[C@H](C(=O)N1CCCCO1)CCO2	-3.733	-10.74	-	-0.09426	-
Cc1ncsc1C(=O)NCCn1nc(C2CCNC2)c2cccnc21.Cl (configuration not stated)	14.18	-0.721	-	2.601	-
CNC(=O)N1C[C@H]2C[C@H](C(=O)Nc3cccnc3)[C@@H](C1)O2	-	-	-8.991	-	4.192
CCCn1ncc(CN(Cc2ccsc2)Cc2ccco2)c1C	-11.3	0.06468	-8.728	-16.07	-1.525
COCCNC(=O)[C@@]12CCO[C@@H]1CCN(Cc1cc(C)on1)C2	-	-	3.75	-	-12.32
Cc1nc(O)cc(C2CCCN(C(=O)c3cccc(N(C)C)c3)C2)n1 (configuration not stated)	6.514	-5.266	14.04	-32.38	-37.58
CC(C)N(CC(C)(C)O)C(=O)NC1CC1	-25.77	11.8	5.088	3.61	-7.205
CNC(=O)COc1ccc(CNc2cncc(-n3cccn3)n2)cc1	19.22	-42.83	-293.8	-	70.69
Cn1ncc2c1CN(Cc1ccc(F)cc1)CC2COCC1CC1.O=C(O)C(F)(F)F.O=C(O)C(F)(F)F (configuration not stated)	51.09	-30.99	-	-44.79	-

Some entries from above, unchanged:

- CC(C)OCCN1CCN(C(=O)c2cc(-n3cccn3)ccn2)CC1 : Leishmania in macrophages: 17.43%; Toxoplasma: 2.671%; ClpP1P2: -5.112%; T. brucei: -30.62%; Pks13 thioesterase: -40.64%
- CCn1cc(CN2CC3CCCN3C[C@H]2C)c(C)n1 (some centres not stated) : Leishmania in macrophages: 0.08962%; Toxoplasma: 0.1922%; ClpP1P2: 11.47%; T. brucei: -23.89%; Pks13 thioesterase: -41.19%
- Cn1cccc1C(=O)N1CC[C@@H]2[C@@H]1CC(=O)N2CC1CCOCC1 : ClpP1P2: -1.338%; Pks13 thioesterase: -42.76%
- COc1ccc(OC)c(NC(=O)c2cc3c([nH]c2=O)CCCC3=O)c1 : Leishmania in macrophages: 36.78%; Toxoplasma: 0.38%; ClpP1P2: -9.895%; T. brucei: -33.54%; Pks13 thioesterase: -3.799%
- Cc1n[nH]c(C)c1C1COCCN1C(=O)c1ccc(Cl)o1 (configuration not stated) : Leishmania in macrophages: 6.645%; Toxoplasma: -12.28%; ClpP1P2: 8.468%; T. brucei: -3.222%; Pks13 thioesterase: -30.66%
- COCCN1CCC2(COCc3cnc(N(C)C)nc32)C1 (configuration not stated) : ClpP1P2: 1.982%; Pks13 thioesterase: -10.07%
- Cc1nn(CC(=O)N2CCCC2Cn2cccn2)c(C)c1Cl (configuration not stated) : Leishmania in macrophages: 2.651%; Toxoplasma: 1.094%; ClpP1P2: -2.1%; T. brucei: -6.774%; Pks13 thioesterase: -12.82%
- CCCN(CC)Cn1ncc2cn(-c3ccccc3)nc2c1=O : Leishmania in macrophages: 22.87%; Toxoplasma: 6.554%; ClpP1P2: 6.31%; T. brucei: 5.062%; Pks13 thioesterase: -28.23%

Data taken from ChEMBL document CHEMBL3988442, “University of Dundee, Small-Polar-MMV Screening Library” (2021).